These are yes or no findings as the source states them, for the method shown. Some binding calls cover weakened binding; strength is not graded here.
Biological target: cytosolic domain of human ATL-1 (human) (UniProt Q8WXF7)
Experiment: AUC; sedimentation velocity, 4°C, protein 0.03 mmol/L, 50 mmol/L Tris pH 8.0, 5 mmol/L MgCl2, 1 mmol/L DTT, 1 mmol/L GDP; monomer to dimer; both purified

binding: binds weakly
B1: cytosolic domain of human ATL-1 (domain or fragment, UniProt Q8WXF7 18-447, looked up)
chain: TYEWSSEEEEPVKKAGPVQVLIVKDDHSFELDETALNRILLSEAVRDKEVVAVSVAGAFRKGKSFLMDFMLRYMYNQESVDWVGDYNEPLTGFSWRGGSERETTGIQIWSEIFLINKPDGKKVAVLLMDTQGTFDSQSTLRDSATVFALSTMISSIQVYNLSQNVQEDDLQHLQLFTEYGRLAMEETFLKPFQSLIFLVRDWSFPYEFSYGADGGAKFLEKRLKVSGNQHEELQNVRKHIHSCFTNISCFLLPHPGLKVATNPNFDGKLKEIDDEFIKNLKILIPWLLSPESLDIKEINGNKITCRGLVEYFKAYIKIYQGEELPHPKSMLQATAEANNLAAVATAKDTYNKKMEEICGGDKPFLAPNDLQTKHLQLKEESVKLFRGVKKMGGEEFSRRYLQQLESEIDELYIQYIKHNDSKNIFHAART

From PMC4312763 (Protein & Cell, 2014)
